Data as given in article PMC4624786.
No constants are given. Whether binding was seen depends on the method and setting. Binding seen in cells or lysates may run through a third protein. A result given as binding can be weak or reduced; the word gives no strength. For some assays here: Where a sequence is shown, tags or fusion partners need not be part of it.

Amino acid sequences for entries named in this document (tags omitted). A change or cut given only in a name is not applied to a line headed by its entry.
UniProt P70182: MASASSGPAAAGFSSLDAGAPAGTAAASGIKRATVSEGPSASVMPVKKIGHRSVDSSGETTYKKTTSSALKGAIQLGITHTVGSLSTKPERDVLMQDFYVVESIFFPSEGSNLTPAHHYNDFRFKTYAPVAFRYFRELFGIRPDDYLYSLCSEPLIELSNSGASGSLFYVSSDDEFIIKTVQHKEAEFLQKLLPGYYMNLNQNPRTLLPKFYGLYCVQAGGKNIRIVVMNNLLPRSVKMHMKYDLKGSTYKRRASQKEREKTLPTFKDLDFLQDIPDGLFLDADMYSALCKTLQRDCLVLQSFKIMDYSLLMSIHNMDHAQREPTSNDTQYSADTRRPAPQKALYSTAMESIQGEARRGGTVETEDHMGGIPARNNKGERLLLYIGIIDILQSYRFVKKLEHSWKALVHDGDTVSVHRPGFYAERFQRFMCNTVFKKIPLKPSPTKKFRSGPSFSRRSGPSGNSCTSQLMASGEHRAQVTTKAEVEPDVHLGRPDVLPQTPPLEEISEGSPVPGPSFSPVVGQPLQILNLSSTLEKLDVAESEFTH
UniProt Q80SW1: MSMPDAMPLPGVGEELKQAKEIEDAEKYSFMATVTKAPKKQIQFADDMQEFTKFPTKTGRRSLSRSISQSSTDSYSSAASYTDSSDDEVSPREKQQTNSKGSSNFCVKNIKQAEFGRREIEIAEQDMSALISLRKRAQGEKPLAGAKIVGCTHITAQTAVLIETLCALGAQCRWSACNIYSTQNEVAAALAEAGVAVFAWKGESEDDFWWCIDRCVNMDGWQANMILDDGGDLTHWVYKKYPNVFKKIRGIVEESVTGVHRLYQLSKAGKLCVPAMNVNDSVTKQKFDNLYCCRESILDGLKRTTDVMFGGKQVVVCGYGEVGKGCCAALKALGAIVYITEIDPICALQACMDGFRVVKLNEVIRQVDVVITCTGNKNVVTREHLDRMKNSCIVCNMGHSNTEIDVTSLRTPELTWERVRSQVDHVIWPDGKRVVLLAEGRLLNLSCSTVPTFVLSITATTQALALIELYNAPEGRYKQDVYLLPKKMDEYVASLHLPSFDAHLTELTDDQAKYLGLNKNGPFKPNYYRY

Tests used:
[1] = molecular target: T1, myc-tagged phosphatidylinositol phosphate kinase type IIα (rat) (UniProt Q9R0I8); experiment: co-IP; COS-7 cells co-transfected with HA-IRBIT and myc-PIPK constructs; lysis buffer 10 mM Hepes pH 7.4, 100 mM NaCl, 2 mM EDTA, 1% Nonidet P-40; precipitated with anti-HA or anti-myc antibody and protein G-Sepharose at 4°C; Western blot
T1 sequence: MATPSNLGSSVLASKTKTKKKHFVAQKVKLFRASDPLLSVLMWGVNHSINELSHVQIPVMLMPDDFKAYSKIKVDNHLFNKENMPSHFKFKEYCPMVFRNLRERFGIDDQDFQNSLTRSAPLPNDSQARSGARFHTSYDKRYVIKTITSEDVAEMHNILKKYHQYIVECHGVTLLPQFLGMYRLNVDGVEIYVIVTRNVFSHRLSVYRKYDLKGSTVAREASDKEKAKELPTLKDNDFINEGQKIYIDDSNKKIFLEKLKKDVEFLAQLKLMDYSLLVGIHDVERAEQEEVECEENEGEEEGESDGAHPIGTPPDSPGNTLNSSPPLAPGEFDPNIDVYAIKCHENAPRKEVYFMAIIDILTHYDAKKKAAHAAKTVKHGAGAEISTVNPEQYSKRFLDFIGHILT

[2] = molecular target: myc-tagged phosphatidylinositol phosphate kinase type Iα (mouse) (UniProt P70182); experiment: as above

For “HA-IRBIT site-directed mutant of Ser66 (from UniProt Q80SW1)”, the binding [1] was “binds” and the binding [2] was “binds”.
For “HA-IRBIT site-directed mutant of Ser68 (from UniProt Q80SW1)”, the binding [1] was “binds weakly” and the binding [2] was “binds weakly”.
In the case of “HA-IRBIT site-directed mutant of Ser70 (from UniProt Q80SW1)”, the binding [1] is reported as “binds” and the binding [2] is reported as “binds”.
In the case of “HA-IRBIT site-directed mutant of Ser71 (from UniProt Q80SW1)”, the binding [1] is reported as “binds weakly” and the binding [2] is reported as “binds weakly”.
“HA-IRBIT site-directed mutant of Ser74 (from UniProt Q80SW1)” was tested, and the binding [1] was “binds”.
For “HA-IRBIT site-directed mutant of Ser77 (from UniProt Q80SW1)”, the binding [2] was “binds”.
With “HA-IRBIT site-directed mutant of Ser80 (from UniProt Q80SW1)” the binding [1] was “binds” and the binding [2] was “binds”.
In the case of “HA-IRBIT site-directed mutant of Ser84 (from UniProt Q80SW1)”, the binding [1] is reported as “binds”.
In the case of “HA-IRBIT site-directed mutant of Thr82 (from UniProt Q80SW1)”, the binding [1] is reported as “binds”.
